{"source": "patent US9610371B2", "about": "“Anticancer therapy” (STC.UNM, priority 2005, dated 2017)", "key": {"[1]": {"tested_on": "somatostatin receptor positive tumor", "test": "Tumor response by daily tumor measurements in tumor bearing Lewis rats", "type": "in vivo, Lewis rat"}, "[2]": {"test": "Biodistribution in tumor bearing and non-tumor bearing rats", "conditions": "rat, in vivo", "procedure": "FIG. 13: A, B Graphical comparisons of Tumor and Non-Tumor Bearing Rats at 1 hour post injection of ^213Bi-DOTATOC. Columns, means, Bars, SEM, white columns represent non-tumor bearing rats and black columns represent tumor bearing rats. Significance of p<0.05 is represented by a (*).\nFor the pathology scoring, to evaluate nephrotoxicity on the 6 treatment groups, a frequency analysis was performed in StatXact-5 using the Jonckheere-Terpstra Test. For all other data, graphs and calculations were performed in SigmaStat®-3 and SigmaPlot®-9 as well as Graph Pad Prism®-4 using the t-test. For all statistical tests results were considered significant when p<0.05. Animal biodistribution and tumor volume data are expressed as the average, plus or minus the SEM."}, "Capan-2": {"tested_on": "Capan-2", "test": "Apoptosis in Capan-2 cells, with or without gemcitabine pre-treatment", "type": "cell-based, human", "conditions": "Capan-2, 37 kBq", "excerpt": "Alpha emitters such as ^213Bi are known to cause G2M arrest and induce apoptosis in cancer cell lines. Experiments were thus performed to evaluate radiation-induced apoptosis and the radiobiological and radiotherapeutical relevance of this mode of cell death in selection of a radionuclide for therapy.\nActivation or down regulation of pro- and anti-apoptotic genes influence cancer cell viability, cancer cell sensitivity to chemotherapy and radiotherapy, and tumor development and progression. A variety of chemotherapeutic agents induce cell death via apoptosis. Gemcitabine is known to induce apoptosis primarily due to Bax overexpression, whereas Bcl-xl is known to reduce gemcitabine-induced apoptosis. In contrast, Capan-2 is […] to Fas-mediated apoptosis. […] The data is expressed as ±S.E.M. of mean apoptosis. […] But when combined with radiolabeled DOTATOC, a synergetic effect on induction of apoptosis is observed."}, "Capan-2 cells [3]": {"tested_on": "Capan-2 cells", "test": "CellTiter-Glo Luminescent Cell Viability Assay, gemcitabine pre-treated and non-treated Capan-2", "type": "cell-based, human", "conditions": "for gemcitabine pre-treatment effects on cell viability vs non-treated Capan-2: 48 hours", "procedure": "Effects of 37 kBq and 370 kBq of ^177Lu labeled DOTATOC and DOTA on gemcitabine pre-treated Capan-2 cells and non-treated cells were evaluated using CellTiter-Glo® Luminescent Cell Viability Assay (Promega, Madison, Wis.) and Cell Death Detection ELISA^PLUS10× (Roche Applied Sciences, IN) for apoptosis. Cell viability was evaluated at 24 and 48 hours of incubations."}, "Capan-2 cells [4]": {"tested_on": "Capan-2 cells", "test": "^177Lu-DOTATOC internalized dose in Capan-2 cells", "type": "cell-based, human"}, "Capan-2 cells [5]": {"tested_on": "Capan-2 cells", "test": "Cell Death Detection ELISA PLUS apoptosis, gemcitabine pre-treated and non-treated Capan-2", "type": "cell-based, human", "conditions": "72 hours", "procedure": "[…] Capan-2 cells and non-treated cells were evaluated using CellTiter-Glo® Luminescent Cell Viability Assay (Promega, Madison, Wis.) and Cell Death Detection ELISA^PLUS10× (Roche Applied Sciences, IN) for apoptosis. Cell viability was evaluated at 24 and 48 hours of incubations."}}, "note": "Part of at least one peptide drawing is inferred or uncertain, most often the ends."}
{"smiles": "C[C@@H](O)[C@@H]1NC(=O)[C@H](CCCCN)NC(=O)[C@@H](Cc2c[nH]c3ccccc23)NC(=O)[C@H](Cc2ccc(O)cc2)NC(=O)[C@@H](NC(=O)[C@@H](Cc2ccccc2)NC(=O)CN2CCN(CC(=O)O)CCN(CC(=O)O)CCN(CC(=O)O)CC2)CSSC[C@@H](C(=O)N[C@H](CO)[C@@H](C)O)NC1=O", "note": "[^213Bi-DOTATOC, metal not drawn]", "values": [{"measurement": "tumor reduction, high-dose vs low-dose (13 MBq) treatment", "setting": "[1]; large-volume tumors (1720 mm^3), 22.2 MBq, 9 days PI, p<0.025", "value": "approximately 3 ×"}, {"measurement": "rate of tumor growth vs controls treated with non-radioactive DOTATOC", "setting": "[1]; small volume tumors (0.75 mm^3), 12.6 MBq, 9 days PI, p<0.037", "value": "significant decrease"}, {"measurement": "tumor growth inhibition", "setting": "[1]; small- and large-volume tumors, fractionated 12.6 MBq and 22.2 MBq respectively", "value": "Tumor growth inhibition was observed"}, {"measurement": "binding to sst expressing tissues (biodistribution data)", "setting": "[2]", "value": "specific binding to sst (somatostatin) expressing tissues"}, {"measurement": "synergetic effect on induction of apoptosis in combination with gemcitabine pre-treatment", "setting": "Capan-2; 1 μg/mL gemcitabine, 48", "value": "observed"}, {"measurement": "effect on induction of apoptosis in combination with gemcitabine pre-treatment", "setting": "Capan-2; 1 μg/mL gemcitabine, 96 hours", "value": "much more pronounced"}, {"measurement": "induction of apoptosis (compared with ^177Lu-DOTATOC at 96 hours)", "setting": "Capan-2; 48 hours", "value": "almost similar induction of apoptosis"}, {"measurement": "induction of apoptosis relative to ^177Lu-DOTATOC", "setting": "Capan-2; 48 hours", "value": "approximately 4 times"}, {"measurement": "induction of apoptosis relative to non-radioactive DOTATOC", "setting": "Capan-2; 48 hours", "value": "~100", "unit": "times"}]}
{"smiles": "C[C@@H](O)[C@@H]1NC(=O)[C@H](CCCCN)NC(=O)[C@@H](Cc2c[nH]c3ccccc23)NC(=O)[C@H](Cc2ccc(O)cc2)NC(=O)[C@@H](NC(=O)[C@@H](Cc2ccccc2)NC(=O)CN2CCN(CC(=O)O)CCN(CC(=O)O)CCN(CC(=O)O)CC2)CSSC[C@@H](C(=O)N[C@H](CO)[C@@H](C)O)NC1=O", "note": "[^177Lu-DOTATOC, metal not drawn]", "values": [{"measurement": "effect on cell viability, gemcitabine pre-treated vs non-treated Capan-2", "setting": "Capan-2 cells [3]; 24 hours, p<0.06, better expressed at 370 kBq", "value": "much pronounced and statistically significant effect"}, {"measurement": "gemcitabine pre-treatment effects on cell viability vs non-treated Capan-2", "setting": "Capan-2 cells [3]; higher doses", "value": "diminished"}, {"measurement": "gemcitabine pre-treatment effects on cell viability vs non-treated Capan-2", "setting": "Capan-2 cells [3]; lower doses", "value": "more pronounced"}, {"measurement": "more internalized dose to gemcitabine pre-treated vs non-treated Capan-2 cells", "setting": "Capan-2 cells [4]", "value": "around 150%"}, {"measurement": "^177Lu-DOTATOC % internalized", "setting": "Capan-2 cells [4]; Capan-2 cells (non-treated)", "value": "5.36 ± 0.053", "unit": "%"}, {"measurement": "^177Lu-DOTATOC % internalized", "setting": "Capan-2 cells [4]; Gemcitabine pre-treated Capan-2 cells", "value": "13.46 ± 0.033", "unit": "%"}, {"measurement": "effect on induction of apoptosis in combination with gemcitabine pre-treatment", "setting": "Capan-2; 1 μg/mL gemcitabine, 96 hours", "value": "significant synergetic effect"}, {"measurement": "induction of apoptosis", "setting": "Capan-2; 96 hours", "value": "significant induction of apoptosis"}, {"measurement": "effect on apoptosis, gemcitabine pre-treated vs non-treated Capan-2", "setting": "Capan-2 cells [5]", "value": "much pronounced and statistically significant effect"}]}
